# Reference: US20230082989A1, “DEVICES AND METHODS FOR TREATING CANCER AND CARDIAC WASTING” (Nazzano Devices Limited, priority 2020, published 2023)
# For some assays here: At least one structure is not confirmed: it was looked up by name or label, or the drawing left a doubt. Some entries share one result that the patent states for a list of compounds.
# What was measured:
# Assay type in all cases: in vivo, human
# advanced cancer patients [1] = test: Survival follow-up of advanced cancer patients receiving heart failure drugs, case series
# advanced cancer patients [2] = test: 24 h ECG recording (mean heart rate, SDNN, NSVT) in advanced cancer patients receiving heart failure drugs, case series
# Method: In some cases, SGLT2 inhibitors, Dapagliflozin or Empagliflozin can be used for treatment of type 2 diabetes, heart failure, or a combination thereof. Disclosed herein are methods comprising administering these drugs to advanced cancer patients to improve a heart muscle in these patients. We here describe 5 advanced cancer patients, who were treated with either an SGLT2 inhibitor, an ACE inhibitor, a beta-blocker or an Angiotensin receptor blocker, all of which are shown to be effective heart failure therapies.
# advanced cancer patients [3] = test: Interpretation of case reports: protection from heart muscle wasting, NSVT and early death
# [4] = Case 6: Colorectal Cancer UICC stage 4, Candesartan 16 mg and Dapagliflozin 10 mg with co-medication
# [5] = Case 12: Multiple Myeloma stage 3, Spironolactone 25 mg, Candesartan 32 mg and Candesartan 8 mg listed, with co-medication
# [6] = Case 13: Lung cancer UICC stage 4B, Spironolactone 25 mg and Candesartan 32 mg with co-medication
# [7] = Case 9: Lung Cancer UICC stage 4, Candesartan 32 mg and Metoprolol 95 mg with co-medication
compound,measurement,setting,value
CCOc1nc2cccc(C(=O)O)c2n1Cc1ccc(-c2ccccc2-c2nnn[nH]2)cc1 [Candesartan],Survival (still alive after),advanced cancer patients [1]; [4],> 507 days
same,Survival (still alive after),advanced cancer patients [1]; [5],> 237 days
same,Survival (still alive after),advanced cancer patients [1]; [6],> 112 days
same,Non-sustained ventricular tachycardia (24 h ECG),advanced cancer patients [2]; [4],no non-sustained ventricular tachycardia
same,Non-sustained ventricular tachycardia (24 h ECG),advanced cancer patients [2]; [7],no non-sustained ventricular tachycardia
same,Non-sustained ventricular tachycardia (24 h ECG),advanced cancer patients [2]; [5],no non-sustained ventricular tachycardia
same,Non-sustained ventricular tachycardia (24 h ECG),advanced cancer patients [2]; [6],no non-sustained ventricular tachycardia
same,Interpretation of the case,advanced cancer patients [3]; [4],"protected from heart muscle wasting, life-threatening non-sustained ventricular tachycardia and early death"
same,Interpretation of the case,advanced cancer patients [3]; [7],"protected from heart muscle wasting, life-threatening non-sustained ventricular tachycardia and early death"
same,Interpretation of the case,advanced cancer patients [3]; [5],"protected from heart muscle wasting, life-threatening non-sustained ventricular tachycardia and early death"
same,Interpretation of the case,advanced cancer patients [3]; [6],"protected from heart muscle wasting, life-threatening non-sustained ventricular tachycardia and early death"
